Drawing on patent US20100254901, “Compositions comprising nucleic acid aptamers” (published 2010), this text covers Kd for 1 sequence.

What is called Kd is the constant that tells how readily two partners part at equilibrium. A lower Kd goes with a tighter complex.

For this data set, the target named is T1, Carcinoembryonic antigen (CEA) (Homo sapiens) (UniProt P06731).
T1 sequence (looked up, limits assumed): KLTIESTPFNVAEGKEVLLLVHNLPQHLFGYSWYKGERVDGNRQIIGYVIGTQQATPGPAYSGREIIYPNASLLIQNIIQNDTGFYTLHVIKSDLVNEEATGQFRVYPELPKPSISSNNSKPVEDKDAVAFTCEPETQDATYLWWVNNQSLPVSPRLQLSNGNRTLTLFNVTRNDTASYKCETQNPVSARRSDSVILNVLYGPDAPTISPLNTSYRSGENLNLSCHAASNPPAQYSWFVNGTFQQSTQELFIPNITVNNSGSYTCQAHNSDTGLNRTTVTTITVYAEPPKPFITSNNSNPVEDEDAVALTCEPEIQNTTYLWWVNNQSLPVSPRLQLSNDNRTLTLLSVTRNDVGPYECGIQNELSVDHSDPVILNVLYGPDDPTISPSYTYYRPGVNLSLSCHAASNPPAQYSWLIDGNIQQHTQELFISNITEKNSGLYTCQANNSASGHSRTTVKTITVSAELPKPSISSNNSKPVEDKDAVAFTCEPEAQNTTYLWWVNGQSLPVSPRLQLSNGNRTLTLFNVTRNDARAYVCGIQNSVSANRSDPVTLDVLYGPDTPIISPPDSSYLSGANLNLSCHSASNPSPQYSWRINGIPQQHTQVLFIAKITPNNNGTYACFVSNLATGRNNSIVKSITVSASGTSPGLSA
The experiment in a line: FP. As to conditions: no binding at 2-800 nM; purified native protein; label: 5'-fluorescein; single-stranded DNA.

Tags and fusion partners may be left off the protein sequences shown. Some results are limits rather than exact numbers.

In turn, “CGGGAATTCTGGCTCTGCGACATGA [random sequence (random primer)]” had an equilibrium dissociation constant (Kd) of over 800 nM.
